According to PubChem BioAssay AID1487 (National Center for Advancing Translational Sciences (NCATS), 2009):
The list shows a part of the results. Further columns of the screen follow, without active or inactive calls. Most of these compounds were active or inconclusive in the main read-out, so they are no random draw. The note in brackets gives the kind of curve behind each potency; many fits are weak.

Test: qHTS Assay for Modulators of Lamin A Splicing
Conditions: HeLa LMNA splicing GFP/RFP minigene ratio, 48 h
Summary of the method: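 S3 HeLa stable clones carrying a lamin A-EGFP splicing minigene plus DsRed2 were seeded at 600 cells/well in Opti-MEM with 2% FBS, pin-dosed and incubated 48 h at 37°C. Acumen cytometry (488 nm) gave the GFP/RFP total-intensity ratio.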

[1] = measured here: GFP splicing reporter channel
[2] = measured here: RFP viability control channel

Row | Structure (SMILES) | AC50 [1] | AC50 [2]
1 | COc1ccccc1-c1cc(NC(=O)COc2ccc(C)c(C)c2)n(-c2ccccc2)n1 | 0.316 µM [rising, single point] | 10 µM [falling, partial curve, poor fit]
2 | COc1ccccc1NC(=O)C1CCN(S(=O)(=O)c2cn(C)cn2)CC1 | 1.41 µM [falling, partial curve] | 1.26 µM [falling, partial curve]
3 | COc1ccc(NC(=O)c2c(NCc3cccc(F)c3)sc3c2CCCC3)c(OC)c1 | 35.5 µM [falling, single point] | 22.4 µM [rising, single point]
4 | O=C(NCc1ccccc1)C1CCN(S(=O)(=O)c2ccc3[nH]c(=O)ccc3c2)CC1 | – | 0.0891 µM [falling, full curve, poor fit]
5 | Cc1cccc(N(C)S(=O)(=O)c2c(C(=O)N3CCCCCC3)c(C)n(C)c2C)c1 | – | 0.00316 µM [falling, full curve, poor fit]
6 | COc1cc(OC)cc(C(=O)NCC(=O)OCC(=O)Nc2ccc3c(c2)OCO3)c1 | – | 12.6 µM [rising, partial curve, poor fit]
7 | N/C(=N\OC(=O)Cc1ccc(-c2ccccc2)cc1)c1ccccn1 | 35.5 µM [rising, single point] | 14.1 µM [rising, single point]
8 | Cc1nc(Oc2ccccc2)c2ccccc2n1 | – | 22.4 µM [rising, single point]
9 | Cc1cc(N2CCN(S(=O)(=O)c3ccc4c(c3)OCCO4)CC2)n2ncnc2n1 | 22.4 µM [rising, partial curve, poor fit] | 22.4 µM [rising, single point]
10 | O=c1c(-c2cccc(Cl)c2)nc2cncnc2n1Cc1ccccc1 | 0.501 µM [falling, full curve, poor fit] | –
11 | Cc1cnc(C(=O)Nc2ccc(S(=O)(=O)NCC(C)C)cc2)cn1 | – | 0.00501 µM [falling, full curve, poor fit]
12 | Cc1ccccc1-c1nnc(SCc2ccccc2F)o1 | 11.2 µM [rising, partial curve, poor fit] | –
13 | O=C(c1noc2c1CCCC2)N1CCN(Cc2ccccc2)CC1 | – | 11.2 µM [rising, single point]
14 | COc1cc(N2CCCC2)ccc1[N+](=O)[O-] | 0.0794 µM [falling, full curve, poor fit] | 0.0316 µM [falling, full curve, poor fit]
15 | CN1CCN(c2cc(N3CCc4ccccc4C3)c(F)cc2[N+](=O)[O-])CC1 | 12.6 µM [rising, single point] | 12.6 µM [rising, partial curve]
16 | COc1ccccc1OCCCCOc1ccccc1C(C)=O | – | 17.8 µM [rising, partial curve]
17 | O=C(O)c1cc2cc(F)ccc2[nH]1 | – | 1.41 µM [rising, partial curve]
18 | O=C(NNc1nc2c(F)cc(F)cc2s1)c1ccccc1 | – | 5.01 µM [rising, partial curve, poor fit]
19 | CCCCCCCCCCCC(=O)[O][Sn]([CH2]CCC)([CH2]CCC)[O]C(=O)CCCCCCCCCCC | 0.002 µM [falling, full curve, poor fit] | –
20 | O=C(c1cccnc1)N1CCN(c2ccc(Cl)cc2)CC1 | 35.5 µM [rising, single point] | –
21 | Oc1ccc(C(=S)N2CCN(c3cccc(Cl)c3)CC2)cc1 | – | 12.6 µM [rising, partial curve]
22 | CN(C)c1ccc(C(=O)NC2CCCc3ccccc32)cc1 (stereo not given) | 0.0355 µM [falling, full curve, poor fit] | –
23 | Cn1cc(CN2CCN(c3ccccc3)CC2)c2ccccc21 | – | 10 µM [rising, partial curve, poor fit]
24 | COc1ccccc1CNC(=O)c1ccc(N2CCCC2)c(NC(=O)NCc2ccc(F)cc2)c1 | 31.6 µM [falling, single point] | 35.5 µM [falling, single point]
25 | CCCCN(CC)Cc1ccc(CNC(=S)Nc2cccc(F)c2)o1 | 28.2 µM [falling, partial curve, poor fit] | 1.12 µM [falling, full curve, poor fit]
26 | CNc1nc(N)c([N+](=O)[O-])c(NCc2ccccc2)n1 | – | 35.5 µM [falling, partial curve, poor fit]

Some values from the entries so far:
Value of COc1cc(N2CCCC2)ccc1[N+](=O)[O-] under AC50 [1]: 0.0794 µM [falling, full curve, poor fit]
Value of CCCCCCCCCCCC(=O)[O][Sn]([CH2]CCC)([CH2]CCC)[O]C(=O)CCCCCCCCCCC under AC50 [1]: 0.002 µM [falling, full curve, poor fit]
